Source: US20080026947
The exact form of at least one protein or probe is not confirmed.

Protein sequences, listed by entry. Tags and fused reporters are not part of them. Lines headed by an entry give the natural chain unless they say otherwise; changes in a name come on top.
UniProt Q04609: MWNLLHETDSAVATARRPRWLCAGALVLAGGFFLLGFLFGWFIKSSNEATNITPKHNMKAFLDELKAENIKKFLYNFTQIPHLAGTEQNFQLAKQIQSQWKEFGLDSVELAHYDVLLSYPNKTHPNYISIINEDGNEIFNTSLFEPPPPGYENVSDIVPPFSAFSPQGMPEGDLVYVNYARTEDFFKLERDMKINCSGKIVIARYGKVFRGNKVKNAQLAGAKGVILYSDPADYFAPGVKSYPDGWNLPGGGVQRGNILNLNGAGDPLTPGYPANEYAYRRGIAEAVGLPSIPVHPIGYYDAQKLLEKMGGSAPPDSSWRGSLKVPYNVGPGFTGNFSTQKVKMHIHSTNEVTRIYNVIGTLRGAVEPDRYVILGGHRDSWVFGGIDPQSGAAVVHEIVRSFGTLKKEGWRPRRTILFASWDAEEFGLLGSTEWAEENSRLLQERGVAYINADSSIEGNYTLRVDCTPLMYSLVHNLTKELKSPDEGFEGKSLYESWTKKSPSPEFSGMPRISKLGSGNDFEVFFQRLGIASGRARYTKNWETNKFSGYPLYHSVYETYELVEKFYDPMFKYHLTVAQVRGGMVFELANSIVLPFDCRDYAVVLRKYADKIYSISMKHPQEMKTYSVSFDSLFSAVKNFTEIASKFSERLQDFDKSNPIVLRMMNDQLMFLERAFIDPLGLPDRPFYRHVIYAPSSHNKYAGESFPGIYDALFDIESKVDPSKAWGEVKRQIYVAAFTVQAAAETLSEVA

Target: PSMA on LNCaP cells (prostate specific membrane antigen) (Homo sapiens) (UniProt Q04609)
Test: activity in cells
Details: RNA aptamer with 10 T deoxynucleotides appended at 3' end, reverse (3'-3') linkage at 3' terminus as stated (3'->5'), rapid uptake in nearly all LNCaP (PSMA+) cells at 1 uM, 15-45 min, limited to small percentage of PSMA-negative PC3 cells, protein on the cell surface, protein details: endogenous

## GGGAGGACGAUGCGGAUCAGCCAUGUUUACGUCACUCCUUGUCAAUCCUCAUCGGCTTTTTTTTTT [5'-FAM-A10-3:T[10]]
  functional effect of the aptamer: active
